According to US4256462A, “Method and composition for determination of n-nitrosamines” (University of Iowa Research Foundation, priority 1979, dated 1981):

Assay: Denitrosation of NDELA with sulfuric acid reagent, NO by chemiluminescence (Example 16)

SMILES: O=NN(CCO)CCO [NDELA, N-nitrosodiethanolamine]
- Integrated Response (NDELA 0.76 ppb, acetic acid 58%, sulfuric acid 16%, water 22%, NaI 0.4%): 520
- Integrated Response (NDELA 1.51 ppb, acetic/sulfuric acid reagent): 600
- Integrated Response (NDELA 3.78 ppb, acetic/sulfuric acid reagent): 890
- Integrated Response (NDELA 7.57 ppb, acetic/sulfuric acid reagent): 1303
- Integrated Response (NDELA 22.70 ppb, acetic/sulfuric acid reagent): 2800
- Integrated Response (NDELA 37.84 ppb, acetic/sulfuric acid reagent): 4000
- Integrated Response (NDELA 53.00 ppb, acetic/sulfuric acid reagent): 5750
- Integrated Response (NDELA 75.68 ppb, acetic/sulfuric acid reagent): 7900
